PubChem BioAssay (EPA / NIEHS)
Inconclusive means that the source gave no clear call. Such entries were picked first, then a sample of the others. For part of these data: Potencies beside an inconclusive call are fits to weak or partial responses and may not hold up. The source made the active and inactive calls. Rule for the calls: active = hit-call score of the fitted dose curve at least 0.9, where 1 is the maximum; inconclusive = response in the unintended direction; inactive = score below 0.9.

By UniProt entry, the sequences of proteins in these tests, tags left out. Where a name states a change or a piece, a line headed by the entry shows the natural chain unless it says otherwise.
UniProt Q9HCS2: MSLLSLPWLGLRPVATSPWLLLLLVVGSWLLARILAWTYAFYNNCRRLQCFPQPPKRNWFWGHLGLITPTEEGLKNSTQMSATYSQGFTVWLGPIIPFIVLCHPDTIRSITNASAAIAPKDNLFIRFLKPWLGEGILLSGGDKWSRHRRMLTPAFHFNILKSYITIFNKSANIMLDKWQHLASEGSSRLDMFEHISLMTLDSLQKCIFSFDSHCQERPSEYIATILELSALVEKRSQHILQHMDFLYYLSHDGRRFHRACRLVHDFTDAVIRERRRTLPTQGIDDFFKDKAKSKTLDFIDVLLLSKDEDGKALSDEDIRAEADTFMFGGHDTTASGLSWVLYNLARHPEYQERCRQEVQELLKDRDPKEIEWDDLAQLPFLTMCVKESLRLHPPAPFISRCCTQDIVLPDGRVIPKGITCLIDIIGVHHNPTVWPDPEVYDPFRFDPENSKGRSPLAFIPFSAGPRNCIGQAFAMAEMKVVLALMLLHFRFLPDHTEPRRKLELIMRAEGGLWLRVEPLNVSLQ
UniProt Q13131: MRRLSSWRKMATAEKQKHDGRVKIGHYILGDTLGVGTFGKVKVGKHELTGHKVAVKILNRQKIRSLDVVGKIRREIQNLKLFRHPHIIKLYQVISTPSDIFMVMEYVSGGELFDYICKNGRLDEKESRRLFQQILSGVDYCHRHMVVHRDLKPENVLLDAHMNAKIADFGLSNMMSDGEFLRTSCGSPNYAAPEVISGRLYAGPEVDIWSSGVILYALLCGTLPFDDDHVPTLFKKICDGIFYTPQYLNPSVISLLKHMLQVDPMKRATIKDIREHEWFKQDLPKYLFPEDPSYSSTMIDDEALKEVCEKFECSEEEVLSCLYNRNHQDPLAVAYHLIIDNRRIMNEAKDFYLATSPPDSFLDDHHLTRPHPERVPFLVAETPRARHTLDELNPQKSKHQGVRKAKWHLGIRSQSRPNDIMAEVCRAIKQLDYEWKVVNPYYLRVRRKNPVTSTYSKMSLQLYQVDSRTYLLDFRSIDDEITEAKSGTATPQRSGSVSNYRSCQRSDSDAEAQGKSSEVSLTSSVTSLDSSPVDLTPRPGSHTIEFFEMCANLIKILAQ
UniProt O14965: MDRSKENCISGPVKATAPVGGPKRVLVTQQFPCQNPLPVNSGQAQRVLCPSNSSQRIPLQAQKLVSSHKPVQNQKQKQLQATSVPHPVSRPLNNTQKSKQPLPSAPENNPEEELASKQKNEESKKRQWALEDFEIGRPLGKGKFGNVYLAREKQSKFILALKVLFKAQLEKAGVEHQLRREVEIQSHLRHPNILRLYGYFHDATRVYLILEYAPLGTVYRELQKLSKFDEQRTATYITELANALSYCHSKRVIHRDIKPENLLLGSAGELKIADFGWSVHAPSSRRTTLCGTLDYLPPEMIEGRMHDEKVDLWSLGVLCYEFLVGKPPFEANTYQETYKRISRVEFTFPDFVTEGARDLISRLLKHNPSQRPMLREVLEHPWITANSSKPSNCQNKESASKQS
UniProt P29317, whole entry, looked up: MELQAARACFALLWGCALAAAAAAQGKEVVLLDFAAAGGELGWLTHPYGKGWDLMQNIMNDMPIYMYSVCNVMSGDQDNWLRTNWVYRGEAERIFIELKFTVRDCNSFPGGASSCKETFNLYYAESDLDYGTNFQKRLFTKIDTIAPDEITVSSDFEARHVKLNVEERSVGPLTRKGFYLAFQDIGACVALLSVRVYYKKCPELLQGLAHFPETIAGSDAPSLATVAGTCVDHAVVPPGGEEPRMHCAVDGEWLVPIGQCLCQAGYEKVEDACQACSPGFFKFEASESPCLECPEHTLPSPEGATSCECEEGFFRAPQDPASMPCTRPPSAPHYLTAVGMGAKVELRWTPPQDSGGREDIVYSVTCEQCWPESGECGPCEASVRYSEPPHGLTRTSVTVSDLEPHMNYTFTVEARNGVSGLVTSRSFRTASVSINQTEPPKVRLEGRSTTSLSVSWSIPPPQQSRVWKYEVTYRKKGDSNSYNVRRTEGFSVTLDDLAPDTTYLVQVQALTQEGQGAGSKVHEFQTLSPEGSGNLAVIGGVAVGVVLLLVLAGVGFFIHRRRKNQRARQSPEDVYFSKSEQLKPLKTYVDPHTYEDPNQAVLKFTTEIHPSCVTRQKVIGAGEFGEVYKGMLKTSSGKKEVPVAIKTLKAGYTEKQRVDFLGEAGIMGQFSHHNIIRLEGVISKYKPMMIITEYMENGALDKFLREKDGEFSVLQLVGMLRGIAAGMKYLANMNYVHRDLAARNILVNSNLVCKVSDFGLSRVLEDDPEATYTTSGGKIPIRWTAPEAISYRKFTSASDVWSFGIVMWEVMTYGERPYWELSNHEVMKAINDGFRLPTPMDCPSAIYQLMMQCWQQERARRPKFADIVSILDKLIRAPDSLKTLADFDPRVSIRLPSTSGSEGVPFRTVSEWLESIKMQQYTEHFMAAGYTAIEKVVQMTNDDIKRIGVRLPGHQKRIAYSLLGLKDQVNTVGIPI
UniProt P11362, whole entry, looked up: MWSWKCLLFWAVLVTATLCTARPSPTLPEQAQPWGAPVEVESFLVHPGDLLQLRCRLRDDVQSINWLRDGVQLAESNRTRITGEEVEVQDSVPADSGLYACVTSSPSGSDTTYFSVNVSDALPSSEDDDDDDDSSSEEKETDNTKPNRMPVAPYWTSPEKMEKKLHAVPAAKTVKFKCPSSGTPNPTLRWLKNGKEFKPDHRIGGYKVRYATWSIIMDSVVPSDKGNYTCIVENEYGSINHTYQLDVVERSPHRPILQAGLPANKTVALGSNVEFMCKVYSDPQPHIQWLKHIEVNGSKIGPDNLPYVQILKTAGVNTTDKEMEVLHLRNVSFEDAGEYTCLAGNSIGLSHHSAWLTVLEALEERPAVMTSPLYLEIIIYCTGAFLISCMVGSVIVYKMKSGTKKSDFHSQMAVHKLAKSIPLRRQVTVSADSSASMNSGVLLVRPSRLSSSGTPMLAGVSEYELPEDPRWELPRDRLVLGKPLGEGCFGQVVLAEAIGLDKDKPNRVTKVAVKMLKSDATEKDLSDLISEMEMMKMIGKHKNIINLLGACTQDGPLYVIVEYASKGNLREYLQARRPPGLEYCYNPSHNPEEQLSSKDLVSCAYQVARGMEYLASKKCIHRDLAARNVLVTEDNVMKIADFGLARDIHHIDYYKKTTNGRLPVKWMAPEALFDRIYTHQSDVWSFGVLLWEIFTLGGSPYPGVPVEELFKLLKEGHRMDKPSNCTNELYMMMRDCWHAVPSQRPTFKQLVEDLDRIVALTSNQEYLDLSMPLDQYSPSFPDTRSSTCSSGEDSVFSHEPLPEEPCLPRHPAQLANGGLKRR
UniProt O15111: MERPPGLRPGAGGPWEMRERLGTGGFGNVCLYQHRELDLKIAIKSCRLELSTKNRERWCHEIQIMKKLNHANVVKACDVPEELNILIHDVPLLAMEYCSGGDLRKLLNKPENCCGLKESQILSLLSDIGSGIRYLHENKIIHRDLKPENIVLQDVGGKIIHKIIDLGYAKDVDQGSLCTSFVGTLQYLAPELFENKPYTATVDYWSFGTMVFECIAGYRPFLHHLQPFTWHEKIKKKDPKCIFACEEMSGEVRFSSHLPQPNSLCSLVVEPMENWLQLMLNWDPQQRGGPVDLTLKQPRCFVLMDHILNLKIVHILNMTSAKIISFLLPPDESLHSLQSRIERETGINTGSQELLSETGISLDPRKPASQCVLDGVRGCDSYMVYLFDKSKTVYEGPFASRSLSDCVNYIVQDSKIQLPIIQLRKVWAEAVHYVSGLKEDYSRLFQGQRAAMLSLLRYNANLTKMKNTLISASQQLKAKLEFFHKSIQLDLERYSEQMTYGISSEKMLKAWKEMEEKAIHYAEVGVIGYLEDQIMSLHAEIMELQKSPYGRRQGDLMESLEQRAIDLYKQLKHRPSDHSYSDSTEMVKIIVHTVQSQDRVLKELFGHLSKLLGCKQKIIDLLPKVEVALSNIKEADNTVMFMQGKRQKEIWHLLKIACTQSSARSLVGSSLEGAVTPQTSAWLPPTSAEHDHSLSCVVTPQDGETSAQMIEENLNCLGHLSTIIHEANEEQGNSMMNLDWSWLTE
UniProt P60484: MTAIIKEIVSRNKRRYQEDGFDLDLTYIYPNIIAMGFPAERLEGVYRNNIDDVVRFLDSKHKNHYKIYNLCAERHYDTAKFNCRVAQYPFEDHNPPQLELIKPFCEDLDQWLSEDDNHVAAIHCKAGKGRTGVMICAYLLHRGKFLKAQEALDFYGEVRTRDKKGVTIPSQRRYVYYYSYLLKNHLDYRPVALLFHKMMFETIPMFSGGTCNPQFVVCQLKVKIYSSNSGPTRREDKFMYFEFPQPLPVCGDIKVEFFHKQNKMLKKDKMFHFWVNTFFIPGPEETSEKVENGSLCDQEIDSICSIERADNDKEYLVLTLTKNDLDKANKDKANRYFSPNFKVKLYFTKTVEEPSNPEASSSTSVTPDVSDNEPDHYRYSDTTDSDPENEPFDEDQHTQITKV
UniProt P17706: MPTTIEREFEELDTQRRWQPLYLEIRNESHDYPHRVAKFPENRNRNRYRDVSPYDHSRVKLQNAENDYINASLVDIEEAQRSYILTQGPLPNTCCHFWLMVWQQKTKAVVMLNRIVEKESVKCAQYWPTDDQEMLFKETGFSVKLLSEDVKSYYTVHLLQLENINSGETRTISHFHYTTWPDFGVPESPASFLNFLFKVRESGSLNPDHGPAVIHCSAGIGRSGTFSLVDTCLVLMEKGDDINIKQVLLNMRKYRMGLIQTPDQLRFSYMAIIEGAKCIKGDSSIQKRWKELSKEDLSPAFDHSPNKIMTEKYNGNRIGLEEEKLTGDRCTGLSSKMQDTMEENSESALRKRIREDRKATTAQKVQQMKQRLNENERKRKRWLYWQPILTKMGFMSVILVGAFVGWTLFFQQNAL
UniProt Q02763: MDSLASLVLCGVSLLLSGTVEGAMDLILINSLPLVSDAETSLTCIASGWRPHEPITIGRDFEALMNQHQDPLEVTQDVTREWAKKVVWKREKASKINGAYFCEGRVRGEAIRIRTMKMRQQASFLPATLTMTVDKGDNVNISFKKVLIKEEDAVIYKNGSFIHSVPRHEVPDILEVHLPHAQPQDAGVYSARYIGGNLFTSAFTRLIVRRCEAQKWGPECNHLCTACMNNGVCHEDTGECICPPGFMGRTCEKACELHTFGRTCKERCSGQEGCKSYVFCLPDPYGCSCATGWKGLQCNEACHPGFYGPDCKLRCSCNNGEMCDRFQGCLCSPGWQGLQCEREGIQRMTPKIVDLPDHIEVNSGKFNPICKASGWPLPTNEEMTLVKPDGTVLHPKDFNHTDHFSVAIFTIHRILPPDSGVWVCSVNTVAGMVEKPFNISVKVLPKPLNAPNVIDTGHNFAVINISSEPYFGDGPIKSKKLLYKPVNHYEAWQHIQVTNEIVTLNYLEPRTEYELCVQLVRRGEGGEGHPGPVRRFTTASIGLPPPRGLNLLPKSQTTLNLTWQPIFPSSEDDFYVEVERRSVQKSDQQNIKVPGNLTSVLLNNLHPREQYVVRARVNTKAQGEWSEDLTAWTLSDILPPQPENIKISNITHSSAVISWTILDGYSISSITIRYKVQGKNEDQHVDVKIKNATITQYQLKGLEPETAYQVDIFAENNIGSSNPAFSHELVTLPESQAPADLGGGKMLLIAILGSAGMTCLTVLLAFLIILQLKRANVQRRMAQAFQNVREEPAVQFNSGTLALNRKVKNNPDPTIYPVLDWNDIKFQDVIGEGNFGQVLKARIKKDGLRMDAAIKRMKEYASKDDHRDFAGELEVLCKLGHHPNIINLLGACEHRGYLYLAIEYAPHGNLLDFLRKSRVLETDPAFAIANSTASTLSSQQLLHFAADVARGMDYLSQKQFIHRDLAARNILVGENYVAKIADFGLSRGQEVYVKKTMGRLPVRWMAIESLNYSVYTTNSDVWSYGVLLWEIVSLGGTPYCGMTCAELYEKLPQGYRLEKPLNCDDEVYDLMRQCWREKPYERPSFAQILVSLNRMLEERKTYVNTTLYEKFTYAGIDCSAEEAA
UniProt P28482, whole entry, looked up: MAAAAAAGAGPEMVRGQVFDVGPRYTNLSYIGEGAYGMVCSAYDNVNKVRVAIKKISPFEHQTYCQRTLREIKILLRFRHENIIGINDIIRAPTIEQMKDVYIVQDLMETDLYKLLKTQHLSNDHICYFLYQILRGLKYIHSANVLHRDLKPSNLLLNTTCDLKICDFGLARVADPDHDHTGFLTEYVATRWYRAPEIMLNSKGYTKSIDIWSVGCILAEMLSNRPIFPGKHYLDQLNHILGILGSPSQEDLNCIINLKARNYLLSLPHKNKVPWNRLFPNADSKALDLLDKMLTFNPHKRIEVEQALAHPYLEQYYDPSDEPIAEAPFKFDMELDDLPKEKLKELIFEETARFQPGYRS

Key:
[1] = target: human CYP4F12, CYP4F12 (gene 66002) (UniProt Q9HCS2); assay: NVS_ADME_hCYP4F12: NovaScreen (NVS) CYP450-related Enzyme Activity (ADME) Assay for human CYP4F12 (AID 2283111)
In short: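 Cell-free fluorescence assay of recombinant human CYP4F12 activity on a specific substrate, read 0.5 h after dosing. Primary screen in duplicate at 10 uM, then concentration series for actives; loss of signal fitted against acetonitrile negative control.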

[2] = target: human AMP-activated Protein Kinase, alpha 1 (AMPKa1), PRKAA1 (gene 5562) (UniProt Q13131); assay: NVS_ENZ_hAMPKa1: NovaScreen (NVS) Enzymatic Assay for human AMP-activated Protein Kinase, alpha 1 (AMPKa1) (AID 2283130)
In short: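 Recombinant human AMPKα1 activity was measured cell-free by fluorescent substrate conversion with electrophoretic mobility-shift separation, 1 h after dosing. Duplicate single-point screening was at 25 uM; actives (≥30% inhibition) were retested in concentration-response up to 50 uM.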

[3] = target: human Aurora Kinase A - serine/threonine-protein Kinase 6 (AurA), AURKA (gene 6790) (UniProt O14965); assay: NVS_ENZ_hAurA: NovaScreen (NVS) Enzymatic Assay for human Aurora Kinase A - serine/threonine-protein Kinase 6 (AurA) (AID 2283142)
In short: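 Cell-free enzymatic assay with human Aurora A, 1 hour after dosing. Fluorescent substrate turnover detected after electrophoretic mobility shift separation of substrate and product. Screened at 25 uM, actives retested in concentration-response up to 50 uM.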

[4] = target: human Ephrin type-A Receptor 2 (EphA2), EPHA2 (gene 1969) (UniProt P29317); assay: NVS_ENZ_hEphA2: NovaScreen (NVS) Enzymatic Assay for human Ephrin type-A Receptor 2 (EphA2) (AID 2283155)
In short: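 Cell-free recombinant EphA2 kinase with specific substrate, 1 h, fluorescence with electrophoretic mobility-shift separation of substrate and product. Primary screen at 25 uM in duplicate; hits retested in singleton concentration-response up to 50 uM, referenced to DMSO.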

[5] = target: human Fibroblast Growth Factor Receptor 1 (FGFR1), FGFR1 (gene 2260) (UniProt P11362); assay: NVS_ENZ_hFGFR1: NovaScreen (NVS) Enzymatic Assay for human Fibroblast Growth Factor Receptor 1 (FGFR1) (AID 2283159)
In short: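 Cell-free recombinant kinase with fluorescent substrate, product separated by electrophoretic mobility shift; read 1 hour after dosing, loss of signal relative to DMSO. Initial screen in duplicate at 25 uM, actives followed in concentration series.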

[6] = target: human IkappaB Kinase alpha (IKKa), CHUK (gene 1147) (UniProt O15111); assay: NVS_ENZ_hIKKa: NovaScreen (NVS) Enzymatic Assay for human IkappaB Kinase alpha (IKKa) (AID 2283167)
In short: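 Cell-free recombinant human IKKa with fluorescent substrate, product separated by electrophoretic mobility shift; read 1 hour after dosing. Primary screen duplicate at 25 uM, actives then concentration-response up to 50 uM; loss of signal relative to DMSO.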

[7] = target: human Phosphatase and Tensin Homolog (PTEN), PTEN (gene 5728) (UniProt P60484); assay: NVS_ENZ_hPTEN: NovaScreen (NVS) Enzymatic Assay for human Phosphatase and Tensin Homolog (PTEN) (AID 2283203)
In short: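 Cell-free recombinant human PTEN with fluorescent substrate; product separated by electrophoretic mobility shift and read by fluorescence 1 h after dosing. Primary screen in duplicate at 25 uM, actives followed in concentration series versus DMSO.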

[8] = target: human Protein Tyrosine Phosphatase Non-receptor Type 2 (PTPN2), PTPN2 (gene 5771) (UniProt P17706); assay: NVS_ENZ_hPTPN2: NovaScreen (NVS) Enzymatic Assay for human Protein Tyrosine Phosphatase Non-receptor Type 2 (PTPN2) (AID 2283207)
In short: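 Cell-free recombinant enzyme with fluorescent substrate, product separated by electrophoretic mobility shift; read 1 h after dosing. Primary screen single concentration (25 uM) in duplicate; actives followed in concentration series; loss of signal versus DMSO.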

[9] = target: human Tyrosine Protein Kinase Receptor Tie-2 (Tie2), TEK (gene 7010) (UniProt Q02763); assay: NVS_ENZ_hTie2: NovaScreen (NVS) Enzymatic Assay for human Tyrosine Protein Kinase Receptor Tie-2 (Tie2) (AID 2283225)
In short: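 Recombinant human Tie2 kinase activity was read cell-free by fluorescence with electrophoretic mobility shift, 1 hour after dosing. The screen used 25 uM in duplicate, then concentration-response up to 50 uM. Signal loss was scored against DMSO.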

[10] = target: human Mitogen-Activated Protein Kinase 1 (MAPK 1), MAPK1 (gene 5594) (UniProt P28482); assay: NVS_ENZ_hMAPK1: NovaScreen (NVS) Enzymatic Assay for human Mitogen-Activated Protein Kinase 1 (MAPK 1) (AID 2283175)
In short: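 Cell-free recombinant human MAPK1 enzymatic assay, fluorescence/electrophoretic mobility shift read at 1 h; loss of signal vs DMSO. Primary screen in duplicate at 25 uM; actives (e.g. ≥30% inhibition) run as concentration-response up to 50 uM.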

Measured: AC50

CC(C)CCCCCCc1ccc(O)cc1
inconclusive: [3] 25000 nM | [4] 86.9 nM | [6] 2590 nM | [9] 25000 nM
not listed: [10]
inactive: all other assays above

CCOC(N)=O
inactive: [1] | [10]

CC1(C)CC(N=C=O)CC(C)(CN=C=O)C1 (configuration not stated)
inconclusive: [1] 217 nM
